The target of experiment [1] is human GPVI protein, soluble extracellular domain (D1 and D2) (human) (UniProt Q9HCN6). Put plainly: SPR (BIAcore 2000). A general note: Surface plasmon resonance follows binding to a sensor surface in real time, without labels.
Experiment [2] shares this target. Put plainly: complex formation for co-crystallisation.

Sequences of proteins named here, by UniProt entry; tags and fusion partners are left off. Residues count along the entry.
UniProt Q9HCN6, residues 21-267: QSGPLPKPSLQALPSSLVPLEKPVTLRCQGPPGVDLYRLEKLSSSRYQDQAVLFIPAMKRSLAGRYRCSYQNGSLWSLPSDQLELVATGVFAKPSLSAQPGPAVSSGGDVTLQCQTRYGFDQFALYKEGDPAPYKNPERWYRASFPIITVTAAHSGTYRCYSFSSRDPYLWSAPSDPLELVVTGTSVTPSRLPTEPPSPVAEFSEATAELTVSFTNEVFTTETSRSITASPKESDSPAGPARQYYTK

This is an account of results in patent US20150098939A1.

Positions count from the first letter of the chain named. Results are given in words; binding and its absence hold for the method and conditions named. Some entries that bind do so weakly or less than the wild type.

B1: anti-GPVI mAb from hybridoma clone 390 (antibody, mouse IgG1, kappa, V domains shown)
VH: QVQLKESGPGLVAPSQSLSITCTVSGFSLTGYGVNWVRQPPGKGLEWLGMIWGDGSTDYNSTLKSRLSISKDNSKSQVFLKMNSLQTDDTARYYCARDLPMDYWGQGTSVTVSS
VL: DIQMTQSPSSLSASLGGKVTITCKASQDINKYIAWYQHKPGKGPSLLIHYTSTLQPGIPSRFSGSGSGRDYSFSISNLEPEDIATYYCLQYANLLTFGGGTKLEIKR
modifications: N-glycosylation site (NST) in the heavy chain variable region is occupied
Consider B1, for which the binding result in experiment [1] was “binds”.

B2: Fab 390-nG (recombinant non-glycosylated Fab of clone 390) (Fab, V domains shown)
VH: B1 VH with N60Q
VL: B1 VL
With B2, the binding result in experiment [2] is listed as “binds”.
